# According to publication PMC5996148:
# This is one part of the list.
# Experiments:
# Test in all cases: protein microarray (ProtoArray v5.0), streptavidin-Alexa Fluor 647
# Settings in all cases: 3'-biotin; 20 mM Tris (pH 7.5), 5 mM MgCl2, 100 mM KCl, 0.1% Tween-20, A/T-rich and random oligonucleotide blockers; temperature not stated; high values mean tight binding
# [1] = tested on: GPR108 (human)
# [2] = tested on: GPR15 (human)
# [3] = tested on: GPR172B (human)
# [4] = tested on: GPRC5C (human)
# [5] = tested on: GPS2 (human)
# [6] = tested on: GPSM3 (human)
# [7] = tested on: GPT (human)
# [8] = tested on: GPX1 (human)
# [9] = tested on: GPX2 (human)
# [10] = tested on: GPX7 (human)
sequence,measurement,setting,value
GGGAGGCTGAGGCAGG [G4-1 biotinylated (PQS2)],binding signal,[1],-0.345 z-score
same,binding signal,[2],-0.313 z-score
same,binding signal,[3],-0.319 z-score
same,binding signal,[4],-0.328 z-score
same,binding signal,[5],-0.321 z-score
same,binding signal,[6],-0.334 z-score
same,binding signal,[7],-0.314 z-score
same,binding signal,[8],-0.338 z-score
same,binding signal,[9],-0.294 z-score
same,binding signal,[10],-0.31 z-score

# Random excerpt: 2 records from the list, in no set order.
sequence,measurement,setting,value
GGGAGGCTGAGGCAGG [G4-1 biotinylated (PQS2)],binding signal,[2],-0.313 z-score
same,binding signal,[6],-0.334 z-score
